Data from publication PMC11832431 (MedComm, 2025).
Results are given in words; binding and its absence hold for the method and conditions named. In cells and extracts the contact can be indirect. These calls come from enrichment with a bait or labelling near it, and not all partners need be listed.

Target: FLAG-S-tagged YAP1 (UniProt P46937)
Experiment: affinity purification with mass spectrometry; tandem affinity purification (anti-FLAG affinity gel, 3x FLAG peptide elution, then S-protein agarose) from HCT116 cells stably expressing FLAG-S-YAP1, treated with MG132 (10 uM, 10 h); NETN buffer (20 mM Tris-HCl, 300 mM NaCl, 1 mM EDTA, 0.5% NP-40, pH 8.0), 4 C; LC-MS/MS

- binding: binds
B1: deubiquitinating enzyme 3 (DUB3), endogenous (enzyme, UniProt Q6R6M4 1-530)
chain: MEDDSLYLGGEWQFNHFSKLTSSRPDAAFAEIQRTSLPEKSPLSSEARVDLCDDLAPVARQLAPRKKLPLSSRRPAAVGAGLQNMGNTCYENASLQCLTYTPPLANYMLSREHSQTCQRPKCCMLCTMQAHITWALHSPGHVIQPSQALAAGFHRGKQEDAHEFLMFTVDAMKKACLPGHKQVDHHSKDTTLIHQIFGGCWRSQIKCLHCHGISDTFDPYLDIALDIQAAQSVKQALEQLVKPEELNGENAYHCGLCLQRAPASKTLTLHTSAKVLILVLKRFSDVTGNKLAKNVQYPECLDMQPYMSQQNTGPLVYVLYAVLVHAGWSCHDGHYFSYVKAQEGQWYKMDDAKVTACSITSVLSQQAYVLFYIQKSEWERHSESVSRGREPRALGAEDTDRRATQGELKRDHPCLQAPELDERLVERATQESTLDHWKFPQEQNKTKPEFNVRKVEGTLPPNVLVIHQSKYKCGMKNHHPEQQSSLLNLSSTTRTDQESVNTGTLASLQGRTRRSKGKNKHSKRALLVCQ
